Experimental data: PubChem BioAssay AID1159578 (Peter MacCallum Cancer Centre, 2015)

Aim: 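Knock-downs that alter how fast lymphatic endothelial cells migrate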 (primary screen)
System: human lymphatic endothelial cells
Reagent: siRNA pool against human genes, 40 nM
Time to read-out: 48 h after transfection
Detection: 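Cells stained with dye and imaged after a scratch; covered wound area and nuclei counted, duplicates averaged, migration set against mock wells and turned into a robust z-score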
Direction: migration robust z-score: higher = faster migration into the scratch; nuclei per well: higher = more cells in the well
Call rule: 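Migration changed when robust z exceeds 2 or falls below -2 and mean nuclei number is at least 3300; otherwise not called changed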
Calls: active = migration changed; inactive = no migration change, or too few cells
The deposit covers about 18,000 reagents; below is a part drawn at random. Over the whole deposit, about 1,030 (5.7%) are marked active. 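Inactive calls also include pools with fewer than 3300 nuclei, whose migration was not assessed.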 The raw values are shown without normalisation. Further read-outs or replicates are left out here.

ACSL3 (acyl-CoA synthetase long chain family member 3) [SID255349620]: migration robust z-score = -0.21; migration class with cell-count check = migration z between -2 and 2; enough cells; nuclei per well, duplicate mean = 4760; call = inactive
MANF (mesencephalic astrocyte derived neurotrophic factor) [SID255353327]: migration robust z-score = -0.53; migration class with cell-count check = migration z between -2 and 2; enough cells; nuclei per well, duplicate mean = 5836; call = inactive
NXPH1 (neurexophilin 1) [SID255357279]: migration robust z-score = -0.76; migration class with cell-count check = migration z between -2 and 2; enough cells; nuclei per well, duplicate mean = 4910; call = inactive
NALF2 (NALCN channel auxiliary factor 2) [SID255356925]: migration robust z-score = -0.26; migration class with cell-count check = migration z between -2 and 2; enough cells; nuclei per well, duplicate mean = 6000; call = inactive
PLN (phospholamban) [SID255351635]: migration robust z-score = 0.27; migration class with cell-count check = migration z between -2 and 2; enough cells; nuclei per well, duplicate mean = 3580; call = inactive
PAK6-AS1 (PAK6 antisense RNA 1) [SID255366098]: migration robust z-score = 0.79; migration class with cell-count check = migration z between -2 and 2; enough cells; nuclei per well, duplicate mean = 5391; call = inactive
PIK3R5 (phosphoinositide-3-kinase regulatory subunit 5) [SID255356309]: migration robust z-score = -4.82; migration class with cell-count check = under 3300 nuclei; migration not judged; nuclei per well, duplicate mean = 816; call = inactive
DEFA4 (defensin alpha 4) [SID255349281]: migration robust z-score = -0.25; migration class with cell-count check = migration z between -2 and 2; enough cells; nuclei per well, duplicate mean = 4525; call = inactive
GLOD5 (glyoxalase domain containing 5) [SID255365706]: migration robust z-score = 0.44; migration class with cell-count check = migration z between -2 and 2; enough cells; nuclei per well, duplicate mean = 6398; call = inactive
NDUFC2 (NADH:ubiquinone oxidoreductase subunit C2) [SID255351180]: migration robust z-score = -0.44; migration class with cell-count check = migration z between -2 and 2; enough cells; nuclei per well, duplicate mean = 5495; call = inactive
ABHD4 (abhydrolase domain containing 4, N-acyl phospholipase B) [SID255359752]: migration robust z-score = 0.18; migration class with cell-count check = migration z between -2 and 2; enough cells; nuclei per well, duplicate mean = 6290; call = inactive
HES4 (hes family bHLH transcription factor 4) [SID255359595]: migration robust z-score = -4.21; migration class with cell-count check = under 3300 nuclei; migration not judged; nuclei per well, duplicate mean = 1832; call = inactive
SPN (sialophorin) [SID255352598]: migration robust z-score = 0.62; migration class with cell-count check = migration z between -2 and 2; enough cells; nuclei per well, duplicate mean = 4291; call = inactive
REXO2 (RNA exonuclease 2) [SID255356602]: migration robust z-score = -0.68; migration class with cell-count check = migration z between -2 and 2; enough cells; nuclei per well, duplicate mean = 6730; call = inactive

Ordered by “nuclei per well, duplicate mean” (highest first): some entries from above
GLOD5 (glyoxalase domain containing 5) [SID255365706]: migration robust z-score = 0.44; migration class with cell-count check = migration z between -2 and 2; enough cells; nuclei per well, duplicate mean = 6398; call = inactive
DEFA4 (defensin alpha 4) [SID255349281]: migration robust z-score = -0.25; migration class with cell-count check = migration z between -2 and 2; enough cells; nuclei per well, duplicate mean = 4525; call = inactive
